Values of other authors as cited in patent US20240180894A1, “METHODS OF TREATING MENTAL AND/OR MOOD DISORDERS USING 2-BROMO-LSD ALONE OR IN COMBINATION WITH A MTOR INHIBITOR” (BeTTERLIFE PHARMA INC., priority 2021, published 2024).

Question: Which results are given for `CO[C@H]1C[C@@H]2CC[C@@H](C)[C@@](O)(O2)C(=O)C(=O)N2CCCC[C@H]2C(=O)O[C@H]([C@H](C)C[C@@H]2CC[C@@H](O)[C@H](OC)C2)CC(=O)[C@H](C)/C=C(\C)[C@@H](O)[C@@H](OC)C(=O)[C@H](C)C[C@H](C)/C=C/C=C/C=C/1C` [Rapamycin, (3S,6R,7E,9R,10R,12R,14S,15E,17E,19E,21S,23S,26R,27R,34aS)-9,10,12,13,14,21,22,23,24,25,26,27,32,33,34,34a-hexadecahydro-9,27-dihydroxy-3-[(1R)-2-[(1S,3R,4R)-4-hydroxy-3-methoxycyclohexyl]-1-methylethyl]-10,21-dimethoxy-6,8,12,14,20,26-hexamethyl-23,27-epoxy-3H-pyrido[2,1-c][1,4]-oxaazacyclohentriacontine-1,5,11,28,29(4H,6H,31H)-pentone]?
Answer: solubility in alcohols, halogenated hydrocarbons and dimethyl sulfoxide (alcohols, halogenated hydrocarbons, dimethyl sulfoxide): soluble; solubility in water, aliphatic hydrocarbons, and diethyl ether (water, aliphatic hydrocarbons, diethyl ether): sparingly soluble
